Assay results from paper PMC5524797.
No constants are given. Whether binding was seen depends on the method and setting. Binding seen in cells or lysates may run through a third protein. A yes stands for co-enrichment or nearness to the bait. Other partners may have been found. Blank lines part the entries; values can stand above or below the molecule they belong to.

The chains behind the UniProt entries cited, without tags or fusion partners.
UniProt Q70KF4: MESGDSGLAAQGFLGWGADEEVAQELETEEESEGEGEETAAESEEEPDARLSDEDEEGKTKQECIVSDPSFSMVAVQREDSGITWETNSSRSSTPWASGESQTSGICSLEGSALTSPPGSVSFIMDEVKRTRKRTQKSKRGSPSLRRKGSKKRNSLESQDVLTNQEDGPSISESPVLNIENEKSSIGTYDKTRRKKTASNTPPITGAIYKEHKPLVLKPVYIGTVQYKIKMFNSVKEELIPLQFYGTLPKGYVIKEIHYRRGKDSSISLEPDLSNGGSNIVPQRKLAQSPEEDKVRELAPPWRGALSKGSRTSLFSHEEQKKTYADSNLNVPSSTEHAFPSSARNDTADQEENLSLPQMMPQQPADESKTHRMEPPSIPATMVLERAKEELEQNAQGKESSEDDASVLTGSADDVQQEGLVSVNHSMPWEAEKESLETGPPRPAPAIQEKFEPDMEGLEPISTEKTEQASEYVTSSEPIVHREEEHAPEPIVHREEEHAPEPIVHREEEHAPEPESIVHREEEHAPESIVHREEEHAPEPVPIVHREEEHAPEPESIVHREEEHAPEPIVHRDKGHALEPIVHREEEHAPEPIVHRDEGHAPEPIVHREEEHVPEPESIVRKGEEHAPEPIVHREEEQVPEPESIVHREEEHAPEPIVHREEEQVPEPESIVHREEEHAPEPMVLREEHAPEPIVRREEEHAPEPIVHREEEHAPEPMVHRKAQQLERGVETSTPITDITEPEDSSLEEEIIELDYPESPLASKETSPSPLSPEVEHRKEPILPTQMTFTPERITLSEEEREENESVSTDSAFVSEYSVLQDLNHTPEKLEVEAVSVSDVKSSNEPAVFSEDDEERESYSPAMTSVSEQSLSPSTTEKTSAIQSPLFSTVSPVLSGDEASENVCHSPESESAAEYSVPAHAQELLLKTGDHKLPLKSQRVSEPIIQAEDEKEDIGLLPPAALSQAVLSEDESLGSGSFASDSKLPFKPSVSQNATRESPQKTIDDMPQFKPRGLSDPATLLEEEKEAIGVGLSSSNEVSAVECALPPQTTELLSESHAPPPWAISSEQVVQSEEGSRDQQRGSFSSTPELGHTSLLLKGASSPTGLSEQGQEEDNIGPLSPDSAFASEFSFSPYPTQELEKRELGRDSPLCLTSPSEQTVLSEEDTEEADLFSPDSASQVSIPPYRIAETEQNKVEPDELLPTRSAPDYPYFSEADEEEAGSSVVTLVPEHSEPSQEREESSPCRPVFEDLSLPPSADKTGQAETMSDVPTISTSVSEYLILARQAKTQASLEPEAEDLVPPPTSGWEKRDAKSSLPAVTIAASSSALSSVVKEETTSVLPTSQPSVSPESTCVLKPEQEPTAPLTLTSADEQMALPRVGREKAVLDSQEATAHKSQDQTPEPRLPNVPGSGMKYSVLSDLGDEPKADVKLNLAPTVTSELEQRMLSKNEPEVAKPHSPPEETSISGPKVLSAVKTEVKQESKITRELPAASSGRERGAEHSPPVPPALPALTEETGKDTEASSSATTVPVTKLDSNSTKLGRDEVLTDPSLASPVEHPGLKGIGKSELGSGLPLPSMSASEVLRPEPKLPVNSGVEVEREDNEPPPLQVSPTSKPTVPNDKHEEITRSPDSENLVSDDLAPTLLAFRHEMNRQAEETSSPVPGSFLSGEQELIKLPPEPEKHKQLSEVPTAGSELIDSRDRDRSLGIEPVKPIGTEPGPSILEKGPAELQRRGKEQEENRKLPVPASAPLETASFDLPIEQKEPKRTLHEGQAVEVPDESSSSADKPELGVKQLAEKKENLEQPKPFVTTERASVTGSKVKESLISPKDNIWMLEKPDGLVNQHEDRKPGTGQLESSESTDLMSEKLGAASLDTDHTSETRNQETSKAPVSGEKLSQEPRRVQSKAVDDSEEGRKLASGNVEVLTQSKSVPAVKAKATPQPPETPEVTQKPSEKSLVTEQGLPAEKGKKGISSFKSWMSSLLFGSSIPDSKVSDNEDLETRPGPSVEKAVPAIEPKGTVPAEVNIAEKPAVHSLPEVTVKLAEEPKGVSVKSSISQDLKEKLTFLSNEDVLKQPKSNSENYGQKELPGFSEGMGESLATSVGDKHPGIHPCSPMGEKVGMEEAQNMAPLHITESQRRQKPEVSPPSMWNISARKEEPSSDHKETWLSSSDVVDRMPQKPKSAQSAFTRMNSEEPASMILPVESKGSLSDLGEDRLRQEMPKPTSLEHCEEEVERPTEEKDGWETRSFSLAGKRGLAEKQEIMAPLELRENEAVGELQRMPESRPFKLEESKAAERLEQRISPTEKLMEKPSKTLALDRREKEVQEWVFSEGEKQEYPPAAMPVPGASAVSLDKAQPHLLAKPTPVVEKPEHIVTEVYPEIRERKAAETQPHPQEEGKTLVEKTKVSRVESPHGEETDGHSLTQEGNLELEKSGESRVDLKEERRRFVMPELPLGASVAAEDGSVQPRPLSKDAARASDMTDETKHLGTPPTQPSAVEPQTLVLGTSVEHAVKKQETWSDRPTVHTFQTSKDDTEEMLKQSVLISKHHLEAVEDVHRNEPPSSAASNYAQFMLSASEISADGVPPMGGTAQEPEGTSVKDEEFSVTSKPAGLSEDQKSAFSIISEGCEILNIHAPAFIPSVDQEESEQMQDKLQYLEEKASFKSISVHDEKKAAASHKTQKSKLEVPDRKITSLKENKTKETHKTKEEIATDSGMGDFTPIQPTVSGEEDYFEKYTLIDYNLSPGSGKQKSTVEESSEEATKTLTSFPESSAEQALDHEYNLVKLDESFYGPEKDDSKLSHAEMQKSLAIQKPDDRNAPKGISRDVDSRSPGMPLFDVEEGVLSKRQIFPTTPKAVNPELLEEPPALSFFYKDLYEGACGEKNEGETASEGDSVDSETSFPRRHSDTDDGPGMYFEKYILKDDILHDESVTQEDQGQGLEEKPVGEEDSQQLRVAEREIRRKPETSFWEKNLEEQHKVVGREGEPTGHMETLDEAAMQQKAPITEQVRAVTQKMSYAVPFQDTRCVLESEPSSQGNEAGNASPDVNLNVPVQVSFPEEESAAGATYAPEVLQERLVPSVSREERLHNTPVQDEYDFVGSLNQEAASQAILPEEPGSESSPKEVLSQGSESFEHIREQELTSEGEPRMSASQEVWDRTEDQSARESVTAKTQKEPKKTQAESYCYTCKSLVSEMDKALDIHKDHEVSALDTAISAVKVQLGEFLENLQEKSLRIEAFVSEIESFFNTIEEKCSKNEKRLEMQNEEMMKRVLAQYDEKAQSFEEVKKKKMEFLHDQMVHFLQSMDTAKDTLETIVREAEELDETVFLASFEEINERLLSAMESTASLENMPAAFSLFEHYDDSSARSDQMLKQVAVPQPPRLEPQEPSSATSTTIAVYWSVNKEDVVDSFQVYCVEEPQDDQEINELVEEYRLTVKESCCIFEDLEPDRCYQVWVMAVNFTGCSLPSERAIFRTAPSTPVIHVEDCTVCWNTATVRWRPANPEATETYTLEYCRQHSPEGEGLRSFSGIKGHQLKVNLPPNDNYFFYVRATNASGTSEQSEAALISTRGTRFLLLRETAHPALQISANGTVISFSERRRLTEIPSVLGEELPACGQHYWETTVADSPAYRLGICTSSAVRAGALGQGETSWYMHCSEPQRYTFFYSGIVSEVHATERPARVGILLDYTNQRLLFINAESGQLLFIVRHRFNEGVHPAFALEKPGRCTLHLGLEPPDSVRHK

Assays:
[1] = molecular target: cardiac ryanodine receptor (RyR2) (mouse (endogenous in heart)) (UniProt E9Q401); assay: affinity purification with mass spectrometry; pan-RyR antibody 34C cross-linked to protein A/G-agarose; RyRs immunoaffinity-purified from heart; read-out told only as 'a combination of mass spectrometry and western blotting'
[2] = molecular target: T1, minispryn (mouse (endogenous in heart)) (UniProt Q8BZ52); assay: affinity purification with mass spectrometry; anti-minispryn antibody 819 cross-linked to protein A/G-agarose; mouse heart RIPA extract, overnight at 4 °C; washed in RIPA with 0.5 M NaCl; bands not shared with the protein G control excised and analysed by mass spectrometry
T1 sequence: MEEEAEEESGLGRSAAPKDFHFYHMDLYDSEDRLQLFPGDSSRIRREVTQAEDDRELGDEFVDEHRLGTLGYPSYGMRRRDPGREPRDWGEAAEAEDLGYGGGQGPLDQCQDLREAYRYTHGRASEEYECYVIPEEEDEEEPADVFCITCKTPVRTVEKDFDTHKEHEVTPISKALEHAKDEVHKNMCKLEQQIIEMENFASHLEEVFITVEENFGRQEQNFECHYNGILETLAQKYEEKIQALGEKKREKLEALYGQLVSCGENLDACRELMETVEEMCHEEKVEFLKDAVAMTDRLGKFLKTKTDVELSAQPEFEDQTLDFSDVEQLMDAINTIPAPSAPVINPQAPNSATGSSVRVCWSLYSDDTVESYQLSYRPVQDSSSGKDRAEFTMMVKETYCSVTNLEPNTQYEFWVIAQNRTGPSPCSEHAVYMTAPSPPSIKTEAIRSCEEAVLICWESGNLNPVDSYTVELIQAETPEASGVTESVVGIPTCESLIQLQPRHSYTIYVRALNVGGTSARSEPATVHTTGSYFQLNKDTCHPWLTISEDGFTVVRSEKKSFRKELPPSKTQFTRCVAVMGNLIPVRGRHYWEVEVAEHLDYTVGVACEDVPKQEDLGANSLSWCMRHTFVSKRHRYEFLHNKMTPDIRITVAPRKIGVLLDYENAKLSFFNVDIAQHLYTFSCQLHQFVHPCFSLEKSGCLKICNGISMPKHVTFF

[3] = molecular target: myospryn (mouse (endogenous in heart)) (UniProt Q70KF4); assay: affinity purification with mass spectrometry; anti-myospryn antibody des122 conjugated to agarose beads; mouse heart RIPA extract, overnight at 4 °C; washed in RIPA with 0.5 M NaCl; bands excised and analysed by mass spectrometry

binding [1]: binds
binding [2]: binds
Molecule: myospryn (from UniProt Q70KF4 1-3739)

binding [3]: binds
binding [1]: binds
B1: minispryn (protein, UniProt Q8BZ52 1-716)
chain: T1 sequence
